Experimental findings from paper PMC12673853 are described below.

Protein sequences, listed by entry. Tags and fused reporters are not part of them.
UniProt P18858, whole entry K845N: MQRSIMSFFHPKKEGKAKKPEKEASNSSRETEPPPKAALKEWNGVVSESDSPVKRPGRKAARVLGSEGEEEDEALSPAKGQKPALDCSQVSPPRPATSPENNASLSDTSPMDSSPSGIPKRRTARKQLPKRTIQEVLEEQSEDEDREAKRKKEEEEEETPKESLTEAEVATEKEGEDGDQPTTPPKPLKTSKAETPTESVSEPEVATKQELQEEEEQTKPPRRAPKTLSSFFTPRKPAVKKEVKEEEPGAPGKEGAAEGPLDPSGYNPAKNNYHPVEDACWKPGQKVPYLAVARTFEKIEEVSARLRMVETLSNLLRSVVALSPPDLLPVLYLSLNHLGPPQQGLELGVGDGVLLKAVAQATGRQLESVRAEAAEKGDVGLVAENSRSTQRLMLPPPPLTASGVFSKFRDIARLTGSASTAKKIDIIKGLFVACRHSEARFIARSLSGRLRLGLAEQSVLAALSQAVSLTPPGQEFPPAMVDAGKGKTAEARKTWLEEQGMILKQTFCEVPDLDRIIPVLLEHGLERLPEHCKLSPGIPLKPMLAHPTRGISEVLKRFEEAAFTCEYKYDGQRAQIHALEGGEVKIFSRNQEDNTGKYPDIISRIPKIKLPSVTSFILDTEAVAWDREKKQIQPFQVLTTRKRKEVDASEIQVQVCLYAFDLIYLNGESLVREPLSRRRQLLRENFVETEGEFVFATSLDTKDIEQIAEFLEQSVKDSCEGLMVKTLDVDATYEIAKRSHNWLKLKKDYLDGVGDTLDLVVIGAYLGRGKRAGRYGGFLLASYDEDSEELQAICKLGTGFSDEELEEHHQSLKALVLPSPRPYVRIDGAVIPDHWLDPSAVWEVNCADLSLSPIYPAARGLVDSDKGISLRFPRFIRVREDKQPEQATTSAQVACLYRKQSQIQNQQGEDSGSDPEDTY
UniProt P18858, whole entry: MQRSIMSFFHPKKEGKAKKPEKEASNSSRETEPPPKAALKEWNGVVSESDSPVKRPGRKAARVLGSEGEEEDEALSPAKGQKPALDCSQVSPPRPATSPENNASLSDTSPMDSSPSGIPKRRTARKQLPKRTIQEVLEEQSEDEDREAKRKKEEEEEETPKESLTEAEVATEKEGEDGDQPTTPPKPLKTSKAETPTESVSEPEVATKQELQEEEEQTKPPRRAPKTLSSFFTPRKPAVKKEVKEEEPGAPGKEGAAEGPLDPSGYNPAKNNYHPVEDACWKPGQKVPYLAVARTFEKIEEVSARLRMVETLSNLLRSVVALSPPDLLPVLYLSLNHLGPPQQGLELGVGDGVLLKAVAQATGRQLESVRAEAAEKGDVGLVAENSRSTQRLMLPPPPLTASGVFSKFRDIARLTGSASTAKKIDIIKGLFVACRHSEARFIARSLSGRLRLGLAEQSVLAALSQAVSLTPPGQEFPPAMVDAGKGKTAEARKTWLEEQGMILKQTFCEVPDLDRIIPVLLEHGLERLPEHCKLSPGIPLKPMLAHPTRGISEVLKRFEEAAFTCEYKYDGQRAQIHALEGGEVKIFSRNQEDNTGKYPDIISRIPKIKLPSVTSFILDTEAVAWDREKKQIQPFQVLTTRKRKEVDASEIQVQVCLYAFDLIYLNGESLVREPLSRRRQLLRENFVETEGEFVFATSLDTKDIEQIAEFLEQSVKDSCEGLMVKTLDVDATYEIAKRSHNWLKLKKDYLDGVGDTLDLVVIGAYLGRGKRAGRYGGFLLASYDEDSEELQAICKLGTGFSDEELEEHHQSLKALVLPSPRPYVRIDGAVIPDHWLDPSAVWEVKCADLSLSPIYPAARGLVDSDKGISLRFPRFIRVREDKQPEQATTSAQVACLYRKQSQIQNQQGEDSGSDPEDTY

A weaker result is weaker than the reference pair of the same experiment.

Series [1] has as its target LIG1 K845N (Cy5-labelled) (human) (UniProt P18858). Briefly: single-molecule TIRF co-localization. To be noted: 1 nM LIG1, 5'-phosphate on S18 at nick, TIRF: 1 mM HEPES pH 7.4, 20 mM NaCl, 0.02% BSA, 0.002% Tween 20, oxygen scavenger (44 mM glucose, glucose oxidase, catalase), 10 mM Trolox, 1 nM LIG1-Cy5, recombinant protein, residues 1-919, protein details: 6xHis, Cy5 (NHS ester).

The target of series [2] is LIG1 wild-type (Cy5-labelled) (human) (UniProt P18858). Briefly: single-molecule TIRF co-localization. As to conditions: short-lived, less frequent, nonspecific binding vs nick, 1 nM LIG1; TIRF: 1 mM HEPES pH 7.4, 20 mM NaCl, 0.02% BSA, 0.002% Tween 20, oxygen scavenger (44 mM glucose, glucose oxidase, catalase), 10 mM Trolox, 1 nM LIG1-Cy5; recombinant protein; residues 1-919; protein details: 6xHis, Cy5 (NHS ester); label: 5'-biotin and 3'-AF488 on S1.

As for “CATGGGCGGCATGAACCA / GAGGCCCATCCTCACC / GGTGAGGATGGGCCTCTGGTTCATGCCGCCCATG [nick A:T]”, the binding result in series [1] (tbound 5.0 ± 0.2 s and 0.4 ± 0.1 s, tunbound 100 ± 12 s, label: 5'-biotin on S15, 3'-AF488 on S18) is reported as “binds more weakly”.

Take “CATGGGCGGCATGAACCAGAGGCCCATCCTCACC (double strand) [no-nick dsDNA]”: in series [2], the binding result is reported as “binds more weakly”.

Turning to “CATGGGCGGCATGAACCG / GAGGCCCATCCTCACC / GGTGAGGATGGGCCTCAGGTTCATGCCGCCCATG [nick 8oxoG:A]”, the binding result in series [1] (tunbound 145 ± 11 s, tbound not significantly different from wild-type, 8-oxo-dG at position 18 of strand 1, label: 5'-biotin on strand 1, 3'-AF488 on S18, letters put together from the description) was “binds more weakly”.
